Experimental data published in PubChem BioAssay AID2685 (National Center for Advancing Translational Sciences (NCATS), 2010).
Hit rate of the full screen: of about 320,000 compounds, about 2,100 (0.66%) were called active. Inconclusive results, whose numbers are uncertain, are shown with a selection of clear calls. Calls follow the shape of the dose curve; as a rule, active = well fitted inhibition curve with a large enough effect in the signal ratio, with a control signal flat (not every such curve was filed as active); inconclusive = small, poorly fitted or top-dose-only effect, or effect the other way, or a change in a side signal; inactive = flat fitted curve, though single readings scatter; the % refers to the signal ratio. Potencies beside an inconclusive call are fits to weak or partial responses and may not hold up.

Test: qHTS Assay for Lipid Storage Modulators in Drosophila S3 Cells
Conditions: BODIPY lipid droplet fluorescence, 18-24 h, cells fed with added oleic acid; lipid storage change, negative = inhibition: at 46.1 µM (top of the series) unless noted
Method in brief: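 Laser-scanning cytometry quantifies lipid droplet accumulation (500–530 nm total intensity; droplet/cell object ratio) in oleic acid-fed (400 uM added) Drosophila S3 cells treated with a concentration series. 20 uM Triacsin C defined 100% inhibition.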
% is scaled to controls: 0 for no effect and ±100 for the full control effect; potency is read from the fitted curve at half-maximal effect.

Lipid storage change, negative = inhibition, inconclusive:
COCCCNC(=O)C1CCCCN1S(=O)(=O)c1ccc(F)cc1 (stereo not given) -20.3%, COc1ccc(CN2CCNC(=O)C2CC(=O)NCCSc2nccn2C)c(OC)c1 (stereo not given) 13%, CCN1CCc2nc(NC(=O)CC(c3ccccc3)c3ccccc3)sc2C1 -34.2%, O=C1NC2(CCCCC2)C(=O)N1/N=C/c1ccccc1Br 14.7%, CC(C)CNS(=O)(=O)c1ccc(S(=O)(=O)N2CCN(C3CCCC3)CC2)cc1 3.85%, C/C(=N\NC(=S)NC1CCCCC1)c1ccccc1 28.1%, O=C1CCC/C1=C\c1ccccc1 -11.3%, CCOc1cccc(/C=C/c2ccc3cccc(O)c3n2)c1O -21.8%, CC(Oc1ccc(Cl)cc1Cl)C(=O)NC1=NN(c2ccccc2)C(=O)C1 (stereo not given) -26.6%, CC(=O)Nc1sc2c(c1C#N)CCCC2 13.7%, O=C(CCc1ccccc1)Nc1ncc2c(n1)CCCC2=O 18.6%, CCS(=O)(=O)N1CCN(Cc2ccncc2)CC1 -10.3%

Lipid storage change, negative = inhibition, inactive:
Cc1ccc(C(=O)N[C@H](C(=O)OCc2nnc(-c3ccccc3)o2)C(C)C)cc1 -7.03%

Potency, active:
O=C1C=C(N2CCOCC2)c2ccccc2C1=O 4.11 µM

Potency, inconclusive:
O=C(O)c1ccc(/C=N/N2CCN(C3c4ccccc4-c4ccccc43)CC2)cc1 1.46 µM [activator, partial curve, poor fit], CC(C)n1nnnc1SCC(=O)N1CCN(C(=O)c2ccco2)CC1 0.411 µM [falling, single point], CCC1CCCCN1C(=O)N[C@@H](CCSC)C(=O)OC (stereo not given in full) 29.1 µM [falling, single point], O=C(CCCN1C(=O)NC2(CCCC2)C1=O)N1CCN(S(=O)(=O)c2ccccc2)CC1 0.0046 µM [falling, full curve, poor fit], COC(=O)c1c(NC(=O)CCc2ccc(C)o2)sc(C)c1C 1.64 µM [activator, partial curve], CS/C(N)=N/S(=O)(=O)c1ccc(NC(C)=O)cc1 0.13 µM [falling, full curve, poor fit], CC1CCCN(C(=O)CCc2ccccc2)C1 (stereo not given) 16.4 µM [activator, partial curve], O=C(COC(=O)/C=C/c1cccc(C(F)(F)F)c1)NCc1ccco1 5.17 µM [activator, full curve], CCN1C(=O)CSC1=Nc1ccc(Cl)c(Cl)c1 18.4 µM [falling, single point], Cc1ccc2ncc(S(=O)(=O)c3ccccc3)c(N3CCCCC3C)c2c1 (stereo not given) 7.31 µM [falling, partial curve], O=C(CCCc1c[nH]c2ccccc12)N1CCCCCC1 0.82 µM [falling, full curve, poor fit]
